# Experimental data reported in the supplement of paper PMC3334620.
# Whole data set: some 33,000 sequences, median “E-score (-0.5 to 0.5)” near -8e-05, cut for the highest 2% near 0.23. Some of the results follow.
# Target: T1, Nrg2 (UniProt P38082)
# T1 sequence: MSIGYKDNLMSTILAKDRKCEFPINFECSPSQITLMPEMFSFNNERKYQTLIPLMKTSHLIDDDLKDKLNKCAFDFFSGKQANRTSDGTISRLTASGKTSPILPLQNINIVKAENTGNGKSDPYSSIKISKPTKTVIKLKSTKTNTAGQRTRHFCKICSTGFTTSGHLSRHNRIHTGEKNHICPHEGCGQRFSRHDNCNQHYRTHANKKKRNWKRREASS
# Assay: PBM E-score (8-mer binding enrichment) (E-score (-0.5 to 0.5)); higher = stronger / more preferred TF binding
# Conditions: protein concentration: 100 nM; construct: GST-full length
# Procedure, shortened: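 For each ungapped eight-base word taken together with its reverse complement, the Universal PBM Analysis Suite assigned an E-score. Binding data came from GST-tagged yeast transcription factors, applied at about 100-200 nM, on universal all-10-mer Agilent arrays made double-stranded by primer extension. Fluorescent anti-GST marked bound protein, and scans were normalised with masliner.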
row,Sequence,PBM E-score
1,AACTCTCA,-0.0436
2,CTCCTGGC,-0.0132
3,AGTAAGAT,0.115
4,GACTGGAA,-0.0853
5,CGACAGTA,0.0257
6,AGGCGCCC,-0.0716
7,ATATTGCC,0.052
8,AACACACC,0.0532
9,AGTACATC,0.0621
10,ACAAAGTA,0.0772
11,ACGCCCAA,0.0467
12,CGGCTGGA,0.0573
13,AGTAATAC,-0.0266
14,GGCGCAAC,0.118
15,AGTGAATA,0.0436
16,ACCTCTAG,-0.0929
17,AAAGTAAC,0.0532
18,CACTAGTC,-0.122
19,TCAGAACA,0.0113
20,AAGGAAGG,-0.0583
21,GCTGTCAA,-0.023
22,GTGCACTA,0.117
23,CGGTAAGA,-0.0669
24,AAGTGAGT,-0.0427
25,ACCAGTGC,-0.347

# Seven neighbouring records already listed, for reference:
row,Sequence,PBM E-score
3,AGTAAGAT,0.115
4,GACTGGAA,-0.0853
5,CGACAGTA,0.0257
6,AGGCGCCC,-0.0716
7,ATATTGCC,0.052
8,AACACACC,0.0532
9,AGTACATC,0.0621

# Additional records follow.

row,Sequence,PBM E-score
1,CCCACGGG,-0.15
2,AACTGTGC,-0.0641
3,CAAGCTCC,-0.235
4,CATTGCGC,-0.0495
5,AATTCCCT,-0.00789
6,GGCACCAC,-0.0855
7,TAAGTATA,0.205
8,GCGAGTAA,0.198
9,ATCACCGA,-0.124
10,TCCCCAGA,-0.0388
11,ATAGACCA,0.0312
12,CGGGTTAC,0.0201
13,ACTTTGCT,-0.101
14,GCGGATTA,0.1
15,TAAGGTAA,0.0784
16,GCTGCAGC,0.121
17,ATCATTCA,0.0768
18,CGATTAGC,0.007
19,AACGGATC,0.199
20,CGCTAGAG,-0.0528
21,CTTCAGGC,-0.151
22,CTAGAGAG,-0.205
23,CTACCGTC,-0.12
24,GTGTAAGA,-0.0727
25,GGAACGAA,0.088

row,Sequence,PBM E-score
1,ACCCCTTA,0.178
2,CAAGGGTG,0.0522
3,GAGGTGTA,-0.141
4,GCTTCGAA,0.0932
5,AGACAACT,0.168
6,CTGCGCGA,-0.0667
7,ATATGTGG,0.131
8,GCCTTTAA,0.0472
9,AATTCGGC,0.0379
10,CGTCATAC,0.105
11,GAGAGAGA,0.00804
12,AACGGTAT,-0.00255
13,CGCACAGC,-0.0765
14,CGCGGATC,0.037
15,AATGGGTA,0.0928
16,GCCCCTCC,-0.0501
17,AGGACTTA,-0.219
18,CCCAGTAC,-0.0672
19,CCTGCATA,-0.0556
20,AAAGCATC,-0.00854
21,TACTCGAA,-0.0855
22,AAGTAAGG,0.159
23,AGTTCCCC,-0.0856
24,AATCGACC,0.126
25,ATGGGGAA,0.222

row,Sequence,PBM E-score
1,GTGATCAC,-0.0973
2,AGTGAAGC,0.054
3,AAGGGGGC,-0.14
4,AAATCTGG,-0.00921
5,AGCTGAAC,-0.0688
6,GGTAAACA,0.0404
7,ACTGTGGG,-0.0564
8,ATATAATG,0.0549
9,CCGGGCAA,-0.145
10,CGTAGATA,-0.0208
11,AGATTGCA,0.109
12,GCGACACA,-0.0338
13,ATCGTAGG,-0.0695
14,CACCAGTC,-0.245
15,CCGCGAGC,-0.0331
16,GCGTTACC,0.0142
17,AATGTGCC,-0.0383
18,GGGAGACA,0.0155
19,GTGTCGCA,-0.0996
20,TCCTTTAA,-0.0214
21,GAGTAGCC,-0.168
22,CCCGCGTC,0.117
23,CGAGTGAC,-0.0664
24,ATGTTGCA,0.137
25,AAAGGTCA,0.00103

row,Sequence,PBM E-score
1,GTGCCACA,-0.13
2,AGCGACGA,0.0107
3,TACCATAA,0.158
4,GGGACGAC,0.0254
5,TACAATAA,0.0523
6,ATTGTCAC,0.0203
7,GCCCAATA,0.0704
8,AGAGACCG,-0.198
9,CCTAACCA,0.0503
10,TCACCAGA,-0.245
11,GGGTAGCA,-0.0316
12,GGTCGTTA,-0.00795
13,CCCCGCTA,0.0985
14,CACTGCCC,-0.0684
15,AGGCGGCG,-0.0115
16,CGGCCGTC,-0.0437
17,CATCCGAA,0.168
18,AAAGCGGA,-0.00417
19,GCCGTATA,0.141
20,CATGGAGC,0.0479
21,GCACCTCC,-0.211
22,CTTGGAGC,-0.0347
23,CGTTAAAA,-0.15
24,CGGGTAAG,-0.13
25,ACTATCCC,-0.0916

row,Sequence,PBM E-score
1,GGAACACA,0.097
2,ACCCCCGG,-0.314
3,AAGAGCGC,0.0881
4,AGATGCGC,0.0467
5,GATTGCAA,0.222
6,ACAGTAGC,-0.0757
7,AGAGGTCC,0.107
8,CTGAGAGC,-0.121
9,ACTATAAC,-0.0177
10,CGAACTAC,0.136
11,ACGTAGAC,-0.244
12,GCCGACGA,0.0149
13,CGATTCGC,0.0756
14,CCAAGAAG,-0.101
15,CCGCATAA,0.195
16,CTTTCGTC,0.0112
17,AAATCTTA,-0.00495
18,ACTATTCG,0.193
19,CTGACATA,-0.114
20,CGGCACTA,0.0799
21,ACCGAGCC,-0.186
22,CCAATCGG,-0.0318
23,TACTAGGA,-0.0465
24,AGGACACT,-0.213
25,GGCGCACA,0.0256

row,Sequence,PBM E-score
1,GACGAGAA,0.103
2,AGAAAAGC,0.0021
3,TAATATCA,0.0975
4,CGTAAAGC,-0.299
5,ATCTTACA,0.0207
6,CTCATCCA,-0.0151
7,TTGGGAAA,0.201
8,CCCGGTAG,-0.117
9,CCCGCTCA,-0.0101
10,ATGGCCGG,-0.116
11,AGAAGGAG,-0.236
12,AACGCCAA,0.0978
13,GAGTGATA,0.0725
14,GACTGGCA,-0.148
15,CAATTGGG,-0.0646
16,AGCAATCG,0.0745
17,CTGGGCGC,-0.0979
18,AGGATTGA,0.0965
19,AGAACCAA,-0.00112
20,ACCCAATC,0.11
21,CATTGTTA,-0.0333
22,CTCTCTGA,-0.0253
